No constants are given. Whether binding was seen depends on the method and setting. Tags and fused reporters may be left off the sequences shown.
Tests used:
[1] = target: CaeA2ΔCt (A. cyanogriseus (CAE-producing strain)); experiment: ITC; MicroCal-ITC200, 25°C; 60 μM CaeA2 construct in the cell, 400 μM flavoprotein in the syringe; 50 mM Tris-HCl pH 7.5, 100 mM NaCl, 0.1 mM TCEP, 5% glycerol; single binding site model; both purified
[2] = substrate: PCP domain of the CaeA2 NRPS module (A. cyanogriseus (CAE-producing strain)); experiment: as above

B1: MBP-fused CaeB1 variant (enzyme, UniProt M1F383 1-386)
chain: MTTGNGAAPPPLTRLSPEDEAWRAHVRAFAEEHIAPLSDRMDRDATLDPGLREKLFSAGLMAVEAPARYGGRGGSLFQVVLTIEEVARVDPGVAVGVDVHNALVVATLLRQGTGDQKRRRLPLLATRQVGAFALSEENAGSDAFAGTTTAVPTSDGGYRINGRKRWTSNAGQADVFLVFARTEGHGSSAFLVDRTAEGLSIDPRTEQMGVRAAATADVVLTDVRVRRQDCVGGPGGGEGVAIGALDIGRIGIAAQMVGLAQGALDEAVAYSRTREQFGQPIGSYQGVRFTLADIATEVAAARALLYDVTRTVAAGTDIAERLRLTAMAKYFASQVAERAASRALEVLGGNGFTREYPLERFYRDVKAGKIYEGTSNMLLRSIAGSL
For B1, the binding [1] was “no binding (tested: 400 μM in the syringe, 60 μM in the cell)” and the binding [2] was “no binding (tested: 400 μM in the syringe, 60 μM in the cell)”.

From PMC8149447, “Caerulomycin and collismycin antibiotics share a trans-acting flavoprotein-dependent assembly line for 2,2’-bipyridine formation” (Nature Communications, 2021)
